Measurements from US20070134286A1, “Methods for reducing intimal hyperplasia, smooth muscle cell proliferation and restenosis in mammals” (priority 2004, published 2007).

Tested on: primary culture of human coronary artery smooth muscle cells
Assay: Affymetrix U133Av2 microarray gene expression
Assay type: cell-based
Details: 100 nM, 30 hr; two-fold change cutoff, p<0.05; of 176 target genes
Experimental: Microarray: […] While the yield of total RNA was low ([…] total per sample), the RNAs were intact as judged by Agilent 2100 analysis. One μg of total RNA from each sample was used to prepare biotin-labeled cRNA target using standard Affymetrix protocols. Prepared cRNA targets were of good quality and quantity. The Affymetrix Human chip U133Av2 was used (22,000+ probe sets) and 10 μg cRNA target was applied to each array. […] Scanned images were loaded into the Rosetta Resolver 4.0 database and processed using the Resolver Affymetrix error model. Within Resolver the drug treated sample replicates (n=3) were informatically combined and ratios constructed relative to the combined control (no addition of drug) samples. The Resolver Affymetrix error model was used to develop each ratio and calculate a p-value. The Resolver error model is robust and includes reporter level, background and error values in the calculation of statistical significance. A combination of hierarchical clustering, gene ontology analysis and pathway mapping were used to assess the function of the regulated genes.

Compound	number of genes down-regulated	number of genes up-regulated
C=C1/C(=C\C=C2/CCC[C@]3(C)[C@@H]([C@H](C)CCCC(C)(C)O)CC[C@@H]23)C[C@@H](O)C[C@@H]1O [calcitriol, 1-alpha-25-dihydroxyvitamin D3]	60	116
C[C@H](/C=C/[C@H](C)C(C)(C)O)[C@H]1CC[C@H]2/C(=C/C=C3C[C@@H](O)C[C@H](O)C3)CCC[C@]12C [paricalcitol, 19-nor-1α,3β,25-trihydroxy-9,10-secoergosta-5(Z); 7(E),22(E)-triene]	61	115
